These are yes or no findings as the source states them, for the method shown.

In this assay the target is LetB MCE2-MCE3 domains (residues 159-383) (E. coli) (UniProt P76272). Put plainly: crystal structure.

B1: LetB MCE2-MCE3 domains (residues 159-383) (domain or fragment, UniProt P76272 159-383)
chain: GDLMIHLQAPDLGSLNSGSLVYFRKIPVGKVYDYAINPNKQGVVIDVLIERRFTDLVKKGSRFWNVSGVDANVSISGAKVKLESLAALVNGAIAFDSPEESKPAEAEDTFGLYEDLAHSQRGVIIKLELPSGAGLTADSTPLMYQGLEVGQLTKLDLNPGGKVTGEMTVDPSVVTLLRENTRIELRNPKLSLSDANLSALLTGKTFELVPGDGEPRKEFVVVPGE
For the molecule B1, the binding entry is on record as “no binding”.

The record behind these values is publication doi:10.1101/748145 (bioRxiv, 2019).
